Laboratory results as given in US9868750B2, “4,5-diarylimidazole derivatives as HDAC inhibitors” (CHARITÉ—UNIVERSITÄTSMEDIZIN BERLIN, priority 2014, dated 2018).

Test system: HDAC active isolates from HeLa cytosolic extract
Experiment: Fluorescence-based HDAC activity assay, HeLa cytosolic extract

## O=C(CCCCCCC(=O)Nc1ccccc1)NO [SAHA, reference compound]
  times more HDAC inhibiting in the cytosolic than in the nuclear fraction: 2.5 times
